Assay results from PMC10011724.
These are yes or no findings as the source states them, for the method shown. Binding seen in cells or lysates may run through a third protein. Binding can be weak; no strength is given. Tags and fused reporters may be left off the sequences shown.

Molecular target: Flag-BPGAP1 (human)
Assay: co-IP; MCF7 cells with Flag-BPGAP1 and HA-Vav1; anti-Flag beads; stimulated with 100 ng/ml EGF for the times indicated, with or without U0126 (10 uM, 1 h), or seeded on collagen-coated plates (cell spreading) for the indicated times

- binding: binds
B1: HA-Vav1 (protein, UniProt P15498 1-845)
chain: MELWRQCTHWLIQCRVLPPSHRVTWDGAQVCELAQALRDGVLLCQLLNNLLPHAINLREVNLRPQMSQFLCLKNIRTFLSTCCEKFGLKRSELFEAFDLFDVQDFGKVIYTLSALSWTPIAQNRGIMPFPTEEESVGDEDIYSGLSDQIDDTVEEDEDLYDCVENEEAEGDEIYEDLMRSEPVSMPPKMTEYDKRCCCLREIQQTEEKYTDTLGSIQQHFLKPLQRFLKPQDIEIIFINIEDLLRVHTHFLKEMKEALGTPGAANLYQVFIKYKERFLVYGRYCSQVESASKHLDRVAAAREDVQMKLEECSQRANNGRFTLRDLLMVPMQRVLKYHLLLQELVKHTQEAMEKENLRLALDAMRDLAQCVNEVKRDNETLRQITNFQLSIENLDQSLAHYGRPKIDGELKITSVERRSKMDRYAFLLDKALLICKRRGDSYDLKDFVNLHSFQVRDDSSGDRDNKKWSHMFLLIEDQGAQGYELFFKTRELKKKWMEQFEMAISNIYPENATANGHDFQMFSFEETTSCKACQMLLRGTFYQGYRCHRCRASAHKECLGRVPPCGRHGQDFPGTMKKDKLHRRAQDKKRNELGLPKMEVFQEYYGLPPPPGAIGPFLRLNPGDIVELTKAEAEQNWWEGRNTSTNEIGWFPCNRVKPYVHGPPQDLSVHLWYAGPMERAGAESILANRSDGTFLVRQRVKDAAEFAISIKYNVEVKHIKIMTAEGLYRITEKKAFRGLTELVEFYQQNSLKDCFKSLDTTLQFPFKEPEKRTISRPAVGSTKYFGTAKARYDFCARDRSELSLKEGDIIKILNKKGQQGWWRGEIYGRVGWFPANYVEEDYSEYC
